Source: patent publication CN110938146A
These are yes or no findings as the source states them, for the method shown. Some entries that bind do so weakly or less than the wild type.

Sequences of proteins named here, by UniProt entry; tags and fusion partners are left off. Residues count along the entry.
UniProt Q8TDQ0, residues 22-200: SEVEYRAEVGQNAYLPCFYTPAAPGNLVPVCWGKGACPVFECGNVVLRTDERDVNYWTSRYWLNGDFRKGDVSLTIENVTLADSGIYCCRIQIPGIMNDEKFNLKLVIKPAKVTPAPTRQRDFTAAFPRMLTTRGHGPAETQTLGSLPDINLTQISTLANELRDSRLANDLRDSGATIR

Biological target: TIM-3重组蛋白 (human) (UniProt Q8TDQ0)
Assay: ELISA: TIM-3 coated, biotinylated Galectin-9-rFc as positive control, HRP-streptavidin

binding: binds
Substance: Galectin-9-rFc (from UniProt O00182 1-355) (Fc fusion)
